Source: PMC6650252
No constants are given. Whether binding was seen depends on the method and setting. Binding seen in cells or lysates may run through a third protein. Some results given as binding are weak or reduced against the parent protein; the word gives no strength.

Sequences of proteins named here, by UniProt entry; tags and fusion partners are left off. Residues count along the entry.
UniProt Q9QYP1, residues 21-1905: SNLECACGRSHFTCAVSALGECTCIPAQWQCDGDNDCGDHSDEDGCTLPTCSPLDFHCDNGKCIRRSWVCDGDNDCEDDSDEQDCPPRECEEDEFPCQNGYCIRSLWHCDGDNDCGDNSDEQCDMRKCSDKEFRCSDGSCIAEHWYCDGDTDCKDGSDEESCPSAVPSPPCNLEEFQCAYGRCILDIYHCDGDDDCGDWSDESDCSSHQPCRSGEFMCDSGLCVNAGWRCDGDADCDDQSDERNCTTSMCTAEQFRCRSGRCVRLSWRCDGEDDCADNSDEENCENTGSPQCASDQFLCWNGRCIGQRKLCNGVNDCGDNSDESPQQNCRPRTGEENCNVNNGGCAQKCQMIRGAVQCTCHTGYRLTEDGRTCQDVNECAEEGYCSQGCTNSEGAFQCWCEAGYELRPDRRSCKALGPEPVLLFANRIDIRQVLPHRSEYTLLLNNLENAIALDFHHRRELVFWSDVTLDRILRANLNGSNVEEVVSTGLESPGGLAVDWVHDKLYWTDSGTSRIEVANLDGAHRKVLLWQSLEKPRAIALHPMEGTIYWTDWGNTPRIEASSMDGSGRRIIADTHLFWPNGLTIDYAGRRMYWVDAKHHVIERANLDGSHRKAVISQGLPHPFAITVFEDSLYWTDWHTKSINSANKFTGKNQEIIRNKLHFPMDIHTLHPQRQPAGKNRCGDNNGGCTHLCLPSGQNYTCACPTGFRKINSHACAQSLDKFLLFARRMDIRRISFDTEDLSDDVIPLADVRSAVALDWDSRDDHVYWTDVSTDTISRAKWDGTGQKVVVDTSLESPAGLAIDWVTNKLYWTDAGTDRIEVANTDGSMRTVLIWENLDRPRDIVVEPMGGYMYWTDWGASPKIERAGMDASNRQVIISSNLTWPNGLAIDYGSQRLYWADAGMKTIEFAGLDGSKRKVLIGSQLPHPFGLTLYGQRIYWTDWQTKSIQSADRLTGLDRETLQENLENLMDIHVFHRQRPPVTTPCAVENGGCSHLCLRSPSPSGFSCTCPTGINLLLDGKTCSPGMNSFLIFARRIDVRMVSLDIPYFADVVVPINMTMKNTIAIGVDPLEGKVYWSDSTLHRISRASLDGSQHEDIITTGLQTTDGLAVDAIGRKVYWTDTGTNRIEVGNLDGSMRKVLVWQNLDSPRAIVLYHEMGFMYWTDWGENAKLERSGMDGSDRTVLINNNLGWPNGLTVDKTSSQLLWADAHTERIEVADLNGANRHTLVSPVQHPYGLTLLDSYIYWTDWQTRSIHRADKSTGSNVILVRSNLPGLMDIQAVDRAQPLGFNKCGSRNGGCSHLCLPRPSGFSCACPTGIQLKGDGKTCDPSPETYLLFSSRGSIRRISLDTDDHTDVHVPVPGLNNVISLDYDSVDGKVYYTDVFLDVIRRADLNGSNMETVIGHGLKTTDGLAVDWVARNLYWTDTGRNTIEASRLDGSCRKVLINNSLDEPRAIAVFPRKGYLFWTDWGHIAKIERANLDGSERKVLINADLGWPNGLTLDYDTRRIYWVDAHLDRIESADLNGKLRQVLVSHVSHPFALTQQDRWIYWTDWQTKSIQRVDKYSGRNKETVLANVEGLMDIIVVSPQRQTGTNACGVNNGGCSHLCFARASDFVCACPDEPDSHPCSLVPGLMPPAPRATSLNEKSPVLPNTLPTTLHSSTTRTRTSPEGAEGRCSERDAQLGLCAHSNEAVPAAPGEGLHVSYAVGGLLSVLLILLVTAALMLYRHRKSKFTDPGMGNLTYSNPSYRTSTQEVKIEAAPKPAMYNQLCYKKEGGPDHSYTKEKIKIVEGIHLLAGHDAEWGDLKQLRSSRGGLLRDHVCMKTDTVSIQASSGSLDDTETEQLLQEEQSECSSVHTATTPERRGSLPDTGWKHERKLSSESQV
UniProt Q9Z139, residues 30-937: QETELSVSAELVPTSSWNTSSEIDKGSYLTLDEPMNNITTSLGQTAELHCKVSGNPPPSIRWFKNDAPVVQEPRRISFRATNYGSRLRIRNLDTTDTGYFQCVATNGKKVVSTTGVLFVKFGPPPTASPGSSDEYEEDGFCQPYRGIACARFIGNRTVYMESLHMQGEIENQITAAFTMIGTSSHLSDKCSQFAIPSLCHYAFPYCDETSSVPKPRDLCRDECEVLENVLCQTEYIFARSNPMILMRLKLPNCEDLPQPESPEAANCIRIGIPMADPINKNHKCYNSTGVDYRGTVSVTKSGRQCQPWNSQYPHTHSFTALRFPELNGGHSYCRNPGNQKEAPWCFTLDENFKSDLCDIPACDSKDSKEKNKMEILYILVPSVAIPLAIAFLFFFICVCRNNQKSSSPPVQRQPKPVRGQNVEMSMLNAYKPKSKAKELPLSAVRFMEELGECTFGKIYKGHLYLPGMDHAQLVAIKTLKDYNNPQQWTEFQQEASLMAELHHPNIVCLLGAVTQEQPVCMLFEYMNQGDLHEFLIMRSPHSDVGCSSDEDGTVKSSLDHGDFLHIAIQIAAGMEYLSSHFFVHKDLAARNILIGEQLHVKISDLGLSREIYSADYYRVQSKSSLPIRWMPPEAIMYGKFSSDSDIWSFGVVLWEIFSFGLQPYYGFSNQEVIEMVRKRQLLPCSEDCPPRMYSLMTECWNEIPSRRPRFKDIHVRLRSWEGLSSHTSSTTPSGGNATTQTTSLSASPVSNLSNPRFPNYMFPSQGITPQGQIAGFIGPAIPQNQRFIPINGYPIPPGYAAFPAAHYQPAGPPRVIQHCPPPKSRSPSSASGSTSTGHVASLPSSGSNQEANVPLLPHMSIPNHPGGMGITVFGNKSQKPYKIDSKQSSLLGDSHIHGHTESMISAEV
UniProt Q9Z138, residues 34-944: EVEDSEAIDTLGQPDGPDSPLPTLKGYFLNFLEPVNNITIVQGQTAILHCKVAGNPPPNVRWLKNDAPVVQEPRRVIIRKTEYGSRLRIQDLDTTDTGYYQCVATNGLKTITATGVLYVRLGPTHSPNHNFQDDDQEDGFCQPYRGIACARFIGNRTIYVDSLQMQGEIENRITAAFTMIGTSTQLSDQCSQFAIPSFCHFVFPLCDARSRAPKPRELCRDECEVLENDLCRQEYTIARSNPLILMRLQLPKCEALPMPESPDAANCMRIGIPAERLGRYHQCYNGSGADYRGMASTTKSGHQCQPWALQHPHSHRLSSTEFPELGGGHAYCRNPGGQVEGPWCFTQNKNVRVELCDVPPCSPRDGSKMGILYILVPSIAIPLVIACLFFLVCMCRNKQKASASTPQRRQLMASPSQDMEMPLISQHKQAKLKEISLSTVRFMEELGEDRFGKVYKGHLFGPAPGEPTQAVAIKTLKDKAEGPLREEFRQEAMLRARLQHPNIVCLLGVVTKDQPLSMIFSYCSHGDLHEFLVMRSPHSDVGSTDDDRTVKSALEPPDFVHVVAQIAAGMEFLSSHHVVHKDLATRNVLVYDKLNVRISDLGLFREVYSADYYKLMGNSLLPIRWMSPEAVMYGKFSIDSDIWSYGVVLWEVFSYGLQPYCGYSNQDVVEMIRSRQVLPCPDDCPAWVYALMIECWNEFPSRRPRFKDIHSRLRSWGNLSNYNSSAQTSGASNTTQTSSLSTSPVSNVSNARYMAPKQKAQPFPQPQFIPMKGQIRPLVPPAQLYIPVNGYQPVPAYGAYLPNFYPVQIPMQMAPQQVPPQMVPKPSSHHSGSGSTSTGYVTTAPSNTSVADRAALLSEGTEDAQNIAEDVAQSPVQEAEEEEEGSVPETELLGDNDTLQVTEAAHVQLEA

Target: Flag-Lrp4 (low-density lipoprotein receptor-related protein 4) (rat) (UniProt Q9QYP1)
Assay: co-IP; Flag-Lrp4 and HA-Ror1 or HA-Ror2 co-transfected into HEK293T cells; Lrp4 precipitated from cell lysates with Flag antibody (Flag M2 beads), immunocomplex analysed for HA-Ror1 and Ror2; also cells treated with Agrin (interaction enhanced)

| Substance | binding |
| --- | --- |
| HA-Ror1 (receptor tyrosine kinase-like orphan receptor 1) (from UniProt Q9Z139 30-937) | no binding |
| HA-Ror2 (receptor tyrosine kinase-like orphan receptor 2) (from UniProt Q9Z138 34-944) | binds |
